# The list shows a part of the results.
# Sequences of proteins named here, by UniProt entry; tags and fusion partners are left off. A change or cut given only in a name is not applied to a line headed by its entry.
# UniProt Q9BY77: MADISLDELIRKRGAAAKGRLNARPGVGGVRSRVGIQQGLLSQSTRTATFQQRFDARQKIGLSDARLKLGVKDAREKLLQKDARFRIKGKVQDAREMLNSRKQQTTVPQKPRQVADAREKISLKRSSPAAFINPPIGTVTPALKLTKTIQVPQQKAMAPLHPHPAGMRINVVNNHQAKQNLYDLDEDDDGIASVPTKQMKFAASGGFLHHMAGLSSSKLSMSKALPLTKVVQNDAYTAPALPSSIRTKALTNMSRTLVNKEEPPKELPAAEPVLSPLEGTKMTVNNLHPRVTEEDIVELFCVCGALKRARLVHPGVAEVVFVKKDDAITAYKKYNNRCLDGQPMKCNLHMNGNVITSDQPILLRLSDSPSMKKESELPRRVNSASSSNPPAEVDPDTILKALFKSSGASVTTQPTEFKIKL
# UniProt Q06203, whole entry, looked up: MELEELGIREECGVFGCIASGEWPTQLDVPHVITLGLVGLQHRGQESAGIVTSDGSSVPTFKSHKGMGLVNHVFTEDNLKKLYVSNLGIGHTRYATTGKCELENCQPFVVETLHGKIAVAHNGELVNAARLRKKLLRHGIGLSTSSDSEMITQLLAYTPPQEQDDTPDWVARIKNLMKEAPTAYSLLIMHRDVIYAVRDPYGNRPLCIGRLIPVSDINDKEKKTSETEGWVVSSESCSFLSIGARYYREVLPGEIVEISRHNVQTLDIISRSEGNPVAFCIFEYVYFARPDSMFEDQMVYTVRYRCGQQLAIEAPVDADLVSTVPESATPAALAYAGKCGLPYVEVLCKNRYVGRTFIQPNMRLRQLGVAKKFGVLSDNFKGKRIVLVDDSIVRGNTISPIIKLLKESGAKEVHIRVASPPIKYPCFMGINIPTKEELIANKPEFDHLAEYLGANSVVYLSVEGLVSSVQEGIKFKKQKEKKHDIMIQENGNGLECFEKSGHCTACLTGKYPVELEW
# UniProt Q9NVU0: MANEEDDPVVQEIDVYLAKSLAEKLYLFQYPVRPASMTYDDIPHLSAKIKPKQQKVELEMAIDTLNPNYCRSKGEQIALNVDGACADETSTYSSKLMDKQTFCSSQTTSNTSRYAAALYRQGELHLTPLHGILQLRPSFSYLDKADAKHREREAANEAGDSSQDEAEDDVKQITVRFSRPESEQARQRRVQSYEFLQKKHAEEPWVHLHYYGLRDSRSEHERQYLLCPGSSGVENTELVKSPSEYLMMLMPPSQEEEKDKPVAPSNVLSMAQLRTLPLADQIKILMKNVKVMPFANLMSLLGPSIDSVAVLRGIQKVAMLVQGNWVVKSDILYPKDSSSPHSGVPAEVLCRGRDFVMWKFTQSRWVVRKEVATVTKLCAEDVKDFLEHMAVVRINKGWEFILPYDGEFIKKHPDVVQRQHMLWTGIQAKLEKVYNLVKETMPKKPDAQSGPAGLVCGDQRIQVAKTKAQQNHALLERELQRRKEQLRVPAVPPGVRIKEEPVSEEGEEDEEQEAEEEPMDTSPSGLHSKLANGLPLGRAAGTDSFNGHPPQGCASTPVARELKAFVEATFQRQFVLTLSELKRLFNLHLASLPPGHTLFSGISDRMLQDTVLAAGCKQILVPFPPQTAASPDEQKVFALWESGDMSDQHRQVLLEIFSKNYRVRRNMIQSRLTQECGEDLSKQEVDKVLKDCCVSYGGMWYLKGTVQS
# UniProt P28340: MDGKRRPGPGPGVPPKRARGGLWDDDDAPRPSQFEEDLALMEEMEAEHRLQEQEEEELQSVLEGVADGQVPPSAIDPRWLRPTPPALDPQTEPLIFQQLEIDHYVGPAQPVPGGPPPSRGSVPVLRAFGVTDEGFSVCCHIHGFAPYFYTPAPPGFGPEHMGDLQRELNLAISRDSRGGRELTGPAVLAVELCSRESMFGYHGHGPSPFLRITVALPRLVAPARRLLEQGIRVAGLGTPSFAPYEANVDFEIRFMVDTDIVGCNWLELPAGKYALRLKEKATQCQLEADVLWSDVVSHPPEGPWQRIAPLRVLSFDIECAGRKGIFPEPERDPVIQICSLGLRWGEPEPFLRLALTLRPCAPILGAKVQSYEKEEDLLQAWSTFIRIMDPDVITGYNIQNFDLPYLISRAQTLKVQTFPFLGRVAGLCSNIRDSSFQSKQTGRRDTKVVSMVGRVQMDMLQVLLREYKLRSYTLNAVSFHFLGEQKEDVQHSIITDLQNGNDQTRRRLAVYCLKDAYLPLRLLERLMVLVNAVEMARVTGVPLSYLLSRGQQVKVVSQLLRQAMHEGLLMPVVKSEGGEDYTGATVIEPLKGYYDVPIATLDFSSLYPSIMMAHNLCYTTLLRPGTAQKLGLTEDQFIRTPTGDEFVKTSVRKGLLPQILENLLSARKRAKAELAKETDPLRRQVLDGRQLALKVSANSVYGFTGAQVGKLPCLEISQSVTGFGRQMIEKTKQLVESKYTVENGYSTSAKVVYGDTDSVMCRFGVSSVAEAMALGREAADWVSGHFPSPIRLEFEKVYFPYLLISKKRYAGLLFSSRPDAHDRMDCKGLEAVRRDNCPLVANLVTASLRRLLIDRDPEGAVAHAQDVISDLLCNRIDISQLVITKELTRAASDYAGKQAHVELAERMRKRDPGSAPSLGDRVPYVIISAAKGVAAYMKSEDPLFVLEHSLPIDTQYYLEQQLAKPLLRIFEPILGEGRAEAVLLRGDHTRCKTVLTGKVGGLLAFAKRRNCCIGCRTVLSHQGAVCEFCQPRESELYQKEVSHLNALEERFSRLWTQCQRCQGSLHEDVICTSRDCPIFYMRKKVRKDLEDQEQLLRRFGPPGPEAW
# UniProt P62937, whole entry, looked up: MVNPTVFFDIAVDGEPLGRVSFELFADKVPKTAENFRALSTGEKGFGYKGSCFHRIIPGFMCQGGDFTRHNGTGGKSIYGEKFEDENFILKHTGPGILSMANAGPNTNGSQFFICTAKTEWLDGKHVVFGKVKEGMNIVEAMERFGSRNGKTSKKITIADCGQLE
# UniProt Q9NW08: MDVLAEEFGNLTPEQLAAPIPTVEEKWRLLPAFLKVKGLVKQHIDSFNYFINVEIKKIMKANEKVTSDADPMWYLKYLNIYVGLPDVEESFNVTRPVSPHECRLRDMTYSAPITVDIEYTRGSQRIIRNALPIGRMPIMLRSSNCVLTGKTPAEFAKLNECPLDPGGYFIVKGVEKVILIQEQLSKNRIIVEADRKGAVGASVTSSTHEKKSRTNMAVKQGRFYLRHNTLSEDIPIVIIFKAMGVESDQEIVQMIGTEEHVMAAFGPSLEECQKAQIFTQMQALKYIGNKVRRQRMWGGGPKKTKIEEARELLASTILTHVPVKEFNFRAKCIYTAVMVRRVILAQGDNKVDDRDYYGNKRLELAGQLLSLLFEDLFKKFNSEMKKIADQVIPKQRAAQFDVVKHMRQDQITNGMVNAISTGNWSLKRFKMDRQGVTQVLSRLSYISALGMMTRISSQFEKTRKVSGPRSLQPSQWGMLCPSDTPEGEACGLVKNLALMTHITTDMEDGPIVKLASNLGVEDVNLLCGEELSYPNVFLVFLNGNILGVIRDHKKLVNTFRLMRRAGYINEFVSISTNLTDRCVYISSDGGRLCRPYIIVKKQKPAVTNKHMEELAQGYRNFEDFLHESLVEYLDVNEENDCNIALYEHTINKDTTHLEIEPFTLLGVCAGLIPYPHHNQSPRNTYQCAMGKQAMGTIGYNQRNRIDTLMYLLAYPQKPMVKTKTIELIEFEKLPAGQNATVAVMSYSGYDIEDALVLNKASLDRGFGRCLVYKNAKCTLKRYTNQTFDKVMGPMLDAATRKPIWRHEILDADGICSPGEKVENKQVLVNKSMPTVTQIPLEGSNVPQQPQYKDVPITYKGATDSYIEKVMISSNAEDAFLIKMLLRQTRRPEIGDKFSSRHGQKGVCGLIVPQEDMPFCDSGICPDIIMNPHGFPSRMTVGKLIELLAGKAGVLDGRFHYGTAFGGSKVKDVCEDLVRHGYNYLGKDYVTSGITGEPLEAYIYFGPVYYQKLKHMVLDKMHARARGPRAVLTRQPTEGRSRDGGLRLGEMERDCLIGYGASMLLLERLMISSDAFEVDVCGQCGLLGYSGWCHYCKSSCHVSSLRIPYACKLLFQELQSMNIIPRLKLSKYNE
# UniProt P09884: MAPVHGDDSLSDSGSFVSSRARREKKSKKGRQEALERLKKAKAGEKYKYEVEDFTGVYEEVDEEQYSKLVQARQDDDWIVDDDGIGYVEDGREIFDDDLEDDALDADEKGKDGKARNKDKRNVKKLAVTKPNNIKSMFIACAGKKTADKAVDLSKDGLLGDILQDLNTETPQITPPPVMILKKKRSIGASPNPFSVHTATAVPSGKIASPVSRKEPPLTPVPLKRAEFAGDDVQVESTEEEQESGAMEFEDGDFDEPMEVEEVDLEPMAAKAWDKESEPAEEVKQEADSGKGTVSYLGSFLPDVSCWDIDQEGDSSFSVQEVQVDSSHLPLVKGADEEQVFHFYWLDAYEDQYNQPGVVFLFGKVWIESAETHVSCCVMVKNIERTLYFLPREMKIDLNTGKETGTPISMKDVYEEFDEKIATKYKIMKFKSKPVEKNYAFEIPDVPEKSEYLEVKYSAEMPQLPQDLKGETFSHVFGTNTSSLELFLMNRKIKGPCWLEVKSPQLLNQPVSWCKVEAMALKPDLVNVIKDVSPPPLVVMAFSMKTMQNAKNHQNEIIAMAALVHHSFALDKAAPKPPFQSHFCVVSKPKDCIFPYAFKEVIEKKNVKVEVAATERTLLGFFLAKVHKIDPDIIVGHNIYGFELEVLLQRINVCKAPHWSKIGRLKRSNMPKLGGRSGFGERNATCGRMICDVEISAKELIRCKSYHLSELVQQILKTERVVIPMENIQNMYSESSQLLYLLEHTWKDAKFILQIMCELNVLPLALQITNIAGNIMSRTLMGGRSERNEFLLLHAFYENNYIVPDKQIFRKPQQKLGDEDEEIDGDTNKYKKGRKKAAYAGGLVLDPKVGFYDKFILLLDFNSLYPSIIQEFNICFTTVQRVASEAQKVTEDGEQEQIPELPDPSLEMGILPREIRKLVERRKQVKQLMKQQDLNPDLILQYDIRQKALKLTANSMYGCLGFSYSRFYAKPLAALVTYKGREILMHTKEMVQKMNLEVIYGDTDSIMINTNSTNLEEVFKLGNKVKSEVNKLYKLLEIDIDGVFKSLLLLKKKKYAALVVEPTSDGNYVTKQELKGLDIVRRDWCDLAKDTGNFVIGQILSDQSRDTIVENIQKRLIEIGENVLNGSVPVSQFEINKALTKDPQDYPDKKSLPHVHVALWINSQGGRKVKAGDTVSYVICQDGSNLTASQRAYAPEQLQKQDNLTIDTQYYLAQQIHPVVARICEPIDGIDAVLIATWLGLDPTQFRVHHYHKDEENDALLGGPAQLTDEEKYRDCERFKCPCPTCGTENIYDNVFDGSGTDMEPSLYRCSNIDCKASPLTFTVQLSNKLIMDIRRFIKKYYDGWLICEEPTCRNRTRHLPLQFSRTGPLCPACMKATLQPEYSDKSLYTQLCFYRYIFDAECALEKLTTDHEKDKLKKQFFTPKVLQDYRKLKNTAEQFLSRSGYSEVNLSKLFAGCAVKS
# UniProt Q99575: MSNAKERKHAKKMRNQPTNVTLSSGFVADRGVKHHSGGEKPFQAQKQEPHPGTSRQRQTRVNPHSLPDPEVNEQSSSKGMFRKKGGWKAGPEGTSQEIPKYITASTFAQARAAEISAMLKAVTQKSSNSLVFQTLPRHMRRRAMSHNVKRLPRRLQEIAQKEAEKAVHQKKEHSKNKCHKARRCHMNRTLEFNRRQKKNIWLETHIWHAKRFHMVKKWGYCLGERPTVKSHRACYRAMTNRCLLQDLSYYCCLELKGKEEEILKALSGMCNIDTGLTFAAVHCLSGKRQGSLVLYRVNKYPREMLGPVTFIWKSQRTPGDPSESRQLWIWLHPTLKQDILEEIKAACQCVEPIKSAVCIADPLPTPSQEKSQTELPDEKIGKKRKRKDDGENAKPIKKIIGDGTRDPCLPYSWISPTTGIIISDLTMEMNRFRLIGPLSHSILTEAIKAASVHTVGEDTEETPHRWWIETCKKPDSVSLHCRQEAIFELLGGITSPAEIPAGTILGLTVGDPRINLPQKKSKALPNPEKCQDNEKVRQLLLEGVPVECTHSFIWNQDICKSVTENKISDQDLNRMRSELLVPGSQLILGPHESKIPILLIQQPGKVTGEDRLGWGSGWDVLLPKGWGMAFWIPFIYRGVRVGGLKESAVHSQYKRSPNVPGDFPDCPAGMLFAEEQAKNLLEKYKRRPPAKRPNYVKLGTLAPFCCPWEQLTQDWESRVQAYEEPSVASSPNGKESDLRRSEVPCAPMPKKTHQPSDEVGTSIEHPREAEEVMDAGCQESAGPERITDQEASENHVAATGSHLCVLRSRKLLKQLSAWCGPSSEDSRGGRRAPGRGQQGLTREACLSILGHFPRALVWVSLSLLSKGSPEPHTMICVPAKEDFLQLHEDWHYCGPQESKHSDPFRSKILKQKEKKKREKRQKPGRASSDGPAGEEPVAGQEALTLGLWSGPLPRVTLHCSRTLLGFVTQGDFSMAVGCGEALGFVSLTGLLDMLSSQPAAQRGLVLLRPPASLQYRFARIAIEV
# Compound: Cc1cc(ccc1-c1ccccc1)C(=O)N1CCCN(CC1)C(=O)CCl [compound 10]
# Assay: probe-labelled cysteine peptide fold change vs DMSO (competition) (log2 fold change); higher = less target engagement (more negative = stronger competition)
# Conditions: 10 µM; THP-1; incubation time: 4 h
# 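Also: competitive profiling in live THP-1 cells: cysteine peptides tagged with an iodoacetamide desthiobiotin (IA-DTB) probe, intensity after compound treatment relative to DMSO-treated cells.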
row,Target,probe-labelled cysteine peptide fold change
1,POLR2A_P24928_1050_STLCSR (UniProt P24928),-0.0683
2,POLR2B_P30876_622_ICRPLLIVEK (UniProt P30876),-0.0725
3,POLR2B_P30876_892_RDCSTFLR (UniProt P30876),-0.18
4,POLDIP3_Q9BY77_338_CLDGQPMK (UniProt Q9BY77),-0.0475
5,PPAT_Q06203_503_SGHCTACLTGK (UniProt Q06203),0.12
6,POLR3E_Q9NVU0_553_AAGTDSFNGHPPQGCASTPVAR (UniProt Q9NVU0),-0.173
7,POLR2I_P36954_52_NCDYQQEADNSCIYVNK (UniProt P36954),-0.00555
8,POLD1_P28340_360_LALTLRPCAPILGAK (UniProt P28340),-0.0973
9,PPIA_P62937_52_GFGYKGSCFHR (UniProt P62937),0.0838
10,POLR2H_P52434_30_LHCESESFK (UniProt P52434),0.126
11,POLR3B_Q9NW08_1054_LGEMERDCLIGYGASMLLLER (UniProt Q9NW08),-0.0449
12,POLA1_P09884_497_GPCWLEVK (UniProt P09884),0.118
13,POLR2A_P24928_602_QIFSLIIPGHINCIR (UniProt P24928),-0.259
14,POLD2_P49005_438_IIRGPEDQTVLLVTVPDFSATQTACLVNLR (UniProt P49005),0.14
15,POLM_Q9NP87_222_VVQELLEHGVCEEVER (UniProt Q9NP87),0.155
16,POP1_Q99575_481_KPDSVSLHCR (UniProt Q99575),0.257
17,POLR1D_P0DPB6_68_NPEVEFCGYTTTHPSESK (UniProt P0DPB6),0.12

# Quoted from above, nos. 10–11
row,Target,probe-labelled cysteine peptide fold change
10,POLR2H_P52434_30_LHCESESFK (UniProt P52434),0.126
11,POLR3B_Q9NW08_1054_LGEMERDCLIGYGASMLLLER (UniProt Q9NW08),-0.0449
